Consider five molecules from publication PMC3537735.

By UniProt entry, the sequences of proteins in these tests, tags left out.
UniProt O70133: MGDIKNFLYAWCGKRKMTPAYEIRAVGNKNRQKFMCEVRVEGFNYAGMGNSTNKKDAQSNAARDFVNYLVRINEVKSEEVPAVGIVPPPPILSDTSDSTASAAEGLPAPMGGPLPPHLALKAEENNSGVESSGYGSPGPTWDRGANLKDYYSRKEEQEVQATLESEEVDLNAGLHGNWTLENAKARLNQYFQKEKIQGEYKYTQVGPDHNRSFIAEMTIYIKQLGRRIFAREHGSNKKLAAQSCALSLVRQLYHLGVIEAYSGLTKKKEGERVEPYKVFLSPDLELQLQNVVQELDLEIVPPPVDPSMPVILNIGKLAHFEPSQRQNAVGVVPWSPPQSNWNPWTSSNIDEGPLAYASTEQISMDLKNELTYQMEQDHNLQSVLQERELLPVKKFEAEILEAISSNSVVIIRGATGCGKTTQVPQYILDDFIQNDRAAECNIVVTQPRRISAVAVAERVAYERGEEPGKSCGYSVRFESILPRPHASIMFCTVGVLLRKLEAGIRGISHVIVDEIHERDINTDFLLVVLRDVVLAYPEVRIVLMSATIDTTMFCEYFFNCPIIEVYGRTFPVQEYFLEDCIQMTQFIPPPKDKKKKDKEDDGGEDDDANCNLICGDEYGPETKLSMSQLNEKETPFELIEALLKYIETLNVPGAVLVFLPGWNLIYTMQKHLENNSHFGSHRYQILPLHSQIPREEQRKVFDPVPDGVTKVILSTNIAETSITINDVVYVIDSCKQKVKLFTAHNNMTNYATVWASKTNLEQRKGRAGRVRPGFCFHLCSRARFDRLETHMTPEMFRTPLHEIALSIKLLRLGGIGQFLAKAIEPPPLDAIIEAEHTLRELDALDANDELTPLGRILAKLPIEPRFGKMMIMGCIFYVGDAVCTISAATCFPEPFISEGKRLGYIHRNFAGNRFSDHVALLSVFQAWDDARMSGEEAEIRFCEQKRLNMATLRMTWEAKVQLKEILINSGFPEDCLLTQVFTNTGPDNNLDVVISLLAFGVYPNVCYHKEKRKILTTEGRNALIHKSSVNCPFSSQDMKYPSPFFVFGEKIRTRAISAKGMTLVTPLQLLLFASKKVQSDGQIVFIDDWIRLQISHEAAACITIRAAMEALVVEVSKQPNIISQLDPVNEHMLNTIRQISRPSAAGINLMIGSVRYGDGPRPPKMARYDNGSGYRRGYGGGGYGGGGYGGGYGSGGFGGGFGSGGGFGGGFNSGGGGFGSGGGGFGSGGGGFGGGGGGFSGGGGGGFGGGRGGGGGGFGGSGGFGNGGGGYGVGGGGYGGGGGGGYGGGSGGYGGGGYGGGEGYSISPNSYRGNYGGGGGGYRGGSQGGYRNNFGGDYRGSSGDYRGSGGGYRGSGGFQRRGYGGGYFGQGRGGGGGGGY
UniProt P17879: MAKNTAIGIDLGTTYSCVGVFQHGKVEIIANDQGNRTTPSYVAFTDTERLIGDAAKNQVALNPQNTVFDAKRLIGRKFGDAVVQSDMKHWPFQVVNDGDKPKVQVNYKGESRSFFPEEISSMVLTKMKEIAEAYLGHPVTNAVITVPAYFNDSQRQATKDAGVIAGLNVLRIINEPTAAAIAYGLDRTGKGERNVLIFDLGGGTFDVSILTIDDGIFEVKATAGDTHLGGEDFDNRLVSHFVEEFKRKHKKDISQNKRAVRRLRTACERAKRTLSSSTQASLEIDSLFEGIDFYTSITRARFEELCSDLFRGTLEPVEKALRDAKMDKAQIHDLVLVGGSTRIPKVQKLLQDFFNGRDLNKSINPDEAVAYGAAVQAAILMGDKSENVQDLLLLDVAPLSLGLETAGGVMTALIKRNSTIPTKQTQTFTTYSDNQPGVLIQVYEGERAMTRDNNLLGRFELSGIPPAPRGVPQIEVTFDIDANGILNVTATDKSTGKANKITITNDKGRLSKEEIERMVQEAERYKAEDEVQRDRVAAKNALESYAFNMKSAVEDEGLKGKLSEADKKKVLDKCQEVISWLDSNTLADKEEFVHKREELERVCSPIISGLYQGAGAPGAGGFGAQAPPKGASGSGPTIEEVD
UniProt Q9WTI7: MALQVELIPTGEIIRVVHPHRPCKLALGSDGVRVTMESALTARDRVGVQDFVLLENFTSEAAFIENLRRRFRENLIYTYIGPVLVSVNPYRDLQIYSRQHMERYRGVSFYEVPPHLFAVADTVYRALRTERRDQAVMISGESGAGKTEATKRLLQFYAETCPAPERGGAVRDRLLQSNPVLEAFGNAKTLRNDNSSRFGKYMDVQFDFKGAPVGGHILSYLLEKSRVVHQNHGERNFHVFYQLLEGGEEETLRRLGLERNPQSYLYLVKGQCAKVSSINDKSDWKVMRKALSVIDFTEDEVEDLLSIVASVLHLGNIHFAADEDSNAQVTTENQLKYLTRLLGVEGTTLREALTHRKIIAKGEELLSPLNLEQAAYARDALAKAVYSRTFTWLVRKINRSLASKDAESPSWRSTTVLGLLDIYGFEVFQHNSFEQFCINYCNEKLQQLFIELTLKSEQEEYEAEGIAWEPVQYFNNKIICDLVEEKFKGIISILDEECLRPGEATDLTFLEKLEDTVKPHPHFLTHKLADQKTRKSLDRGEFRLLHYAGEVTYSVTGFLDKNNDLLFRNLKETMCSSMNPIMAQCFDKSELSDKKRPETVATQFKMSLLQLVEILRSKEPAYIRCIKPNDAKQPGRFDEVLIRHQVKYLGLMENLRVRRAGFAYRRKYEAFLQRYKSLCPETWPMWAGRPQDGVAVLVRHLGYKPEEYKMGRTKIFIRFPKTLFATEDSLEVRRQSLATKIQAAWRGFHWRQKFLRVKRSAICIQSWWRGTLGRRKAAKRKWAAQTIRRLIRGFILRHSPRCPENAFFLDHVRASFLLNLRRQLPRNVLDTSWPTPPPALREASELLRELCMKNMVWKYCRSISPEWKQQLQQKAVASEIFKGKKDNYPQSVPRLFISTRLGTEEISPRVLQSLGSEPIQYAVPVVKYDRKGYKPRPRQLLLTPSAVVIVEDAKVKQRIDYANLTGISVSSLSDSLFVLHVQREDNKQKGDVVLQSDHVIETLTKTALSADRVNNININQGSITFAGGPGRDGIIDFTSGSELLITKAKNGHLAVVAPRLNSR

Where two headings read alike, the source gives them in different places. Results are given in words; binding and its absence hold for the method and conditions named. Binding seen in cells or lysates may run through a third protein. Here binding means that the protein was enriched with, or labelled near, the bait; the list need not be complete. Sequences can lack the tags named with a protein.

The target of assay [1] is T1, LMX1B-myc-HIS fusion protein (UniProt O88609).
T1 sequence: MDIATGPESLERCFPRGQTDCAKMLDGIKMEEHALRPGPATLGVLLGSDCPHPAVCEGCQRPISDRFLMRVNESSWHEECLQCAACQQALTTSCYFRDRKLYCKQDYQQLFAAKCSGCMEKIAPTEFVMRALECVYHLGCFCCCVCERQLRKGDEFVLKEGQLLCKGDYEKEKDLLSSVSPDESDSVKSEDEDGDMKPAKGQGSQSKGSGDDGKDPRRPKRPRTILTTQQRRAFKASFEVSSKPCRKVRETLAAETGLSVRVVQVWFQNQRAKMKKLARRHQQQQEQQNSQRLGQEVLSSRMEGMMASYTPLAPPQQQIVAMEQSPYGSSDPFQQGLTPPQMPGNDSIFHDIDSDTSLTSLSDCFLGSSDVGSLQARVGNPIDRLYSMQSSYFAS
The assay can be described thus: affinity purification with mass spectrometry; IP with anti-HIS or anti-LMX1B (two separate LMX1B IPs) on lysate of MN9D cells overexpressing LMX1B-HIS (control: goat or rabbit IgG); bands cut from silver-stained SDS gels, nanoLC-ESI-MS/MS, Mascot.

The target in assay [2] is T1, LMX1B-myc-HIS fusion protein. The assay is described as above. This is another data set of the same source.

Consider “DEAH (Asp-Glu-Ala-His) box polypeptide 9 (from UniProt O70133 1-1380)”, for which the binding result in assay [1] was “binds”.
Still for that read-out and setting: the result for “Heat shock protein 70 (from UniProt P17879 1-642)” reads “binds”.
On the same count and under the same terms, the result for Myosin 1c (from UniProt Q9WTI7 1-1063) reads “binds”.

B1: Lamina-associated polypeptide 2, isoforms alpha/zeta (protein, UniProt Q61033 1-693)
chain: MPEFLEDPSVLTKDKLKSELVANNVTLPAGEQRKDVYVQLYLQHLTARNRPPLAAGANSKGPPDFSSDEEREPTPVLGSGASVGRGRGAVGRKATKKTDKPRLEDKDDLDVTELSNEELLDQLVRYGVNPGPIVGTTRKLYEKKLLKLREQGTESRSSTPLPTVSSSAENTRQNGSNDSDRYSDNDEGKKKEHKKVKSARDCVPFSELASTPSGAFFQGISFPEISTRPPLGRTELQAAKKVQTTKRDPPRETCTDTALPGKGQTHKLAPGRSLFIPSESSYDRCVEKSSSPSSQREFAARLVSAAASPSLIRETTTTYSKDIVENICRGGKSRAQPLRAEEPGVSDQSVFSSEREVLQESERSQVISPPLAQAIRDYVNSLLVQGGVGSLPGTSDSVPTLDVENICKRLSQSSYQDSESLSPPRKVPRLSEKPARGGDSGSCVAFQNTPGSEHRSSFAKSVVSHSLTTLGVEVSKPPPQHDKIEASEPSFPLHESILKVVEEEWQQIDRQLPSVACRYPVSSIEAARILSVPKVDDEILGFISEATPRAATQASSTESCDKHLDLALCRSYEAAASALQIAAHTAFVAKSLQADISQAAQIINSDPSDAQQALRILNRTYDAASYLCDAAFDEVRMSACAMGSSTMGRRYLWLKDCKISPASKNKLTVAPFKGGTLFGGEVHKVIKKRGNKQ
For the molecule B1, the binding entry in assay [2] is recorded as “binds”.

B2: Glucocorticoid receptor DNA-binding factor 1 (protein, UniProt Q91YM2 1-1499)
chain: MMMARKQDVRIPTYNISVVGLSGTEKEKGQCGIGKSCLCNRFVRPSADEFHLDHTSVLSTSDFGGRVVNNDHFLYWGEVSRSLEDCVECKMHIVEQTEFIDDQTFQPHRSTALQPYIKRAAATKLASAEKLMYFCTDQLGLEQDFEQKQMPDGKLLVDGFLLGIDVSRGMNRNFDDQLKFVSNLYNQLAKTKKPIVVVLTKCDEGVERYIRDAHTFALSKKNLQVVETSARSNVNVDLAFSTLVQLIDKSRGKTKIIPYFEALKQQSQQIATAKDKYEWLVSRIVKNHNENWPSVSRKMQASPEYQDYVYLEGTQKAKKLFLQHIHRLKHEHIERRRKLYLAALPLAFEALIPNLDEVDHLSCIKAKKLLETKPEFLKWFVVLEETPWDATSHIDNMENERIPFDLMDTVPAEQLYETHLEKLRNERKRAEMRRAFKENLETSPFITPGKPWEEARSFIMNEDFYQWLEESVYMDIYGKHQKQIIDRAKEEFQELLLEYSELFYELELDAKPSKEKMGVIQDVLGEEQRFKALQKLQAERDALILKHIHFVYHPTKETCPSCPACVDAKIEHLISSRFIRPSDRNQKNSLSDLNIDRINLVILGKDGLARELANEIRALCTNDDKYVIDGKMYELSLRPIEGNVRLPVNSFQTPTFQPHGCLCLYNSKESLSYVVESIEKSRESTLGRRDNHLVHLPLTLILVNKRGDTSGETLHSLIQQGQQIASKLQCVFLDPASAGIGYGRNINEKQISQVLKGLLDSKRNLNLVSSTASIKDLADVDLRIVMCLMCGDPFSADDVLSPVLQSQTCKSSHCGSSNSVLLELPIGLHKKRIELSVLSYHSSFSIRKSRLVHGYIVFYSAKRKASLAMLRAFLCEVQDIIPIQLVALTDGAIDVLDNDLSREQLTEGEEIAQEIDGRFTSIPCSQPQHKLELFHPFFKDVVEKKNIIEATHMYDNVAEACSTTEEVFNSPRAGSPLCNSNLQDSEEDVEPPSYHLFREDATLPSLSKDHSKFSMELEGNDGLSFIMSNFESKLNNKVPPPVKPKPPVHFDITKDLSYLDQGHREGQRKSMSSSPWMPQDGFDPSDYAEPMDAVVKPRNEEENIYSVPHDSTQGKIITIRNINKAQSNGSGNGSDSEMDTSSLERGRKVSAVSKPVLYRTRCTRLGRFASYRTSFSVGSDDELGPIRKKEEDQASQGYKGDNAVIPYETDEDPRRRNILRSLRRNTKKPKPKPRPSITKATWESNYFGVPLTTVVTPEKPIPIFIERCIEYIEATGLSTEGIYRVSGNKSEMESLQRQFDQDHNLDLAEKDFTVNTVAGAMKSFFSELPDPLVPYSMQIDLVEAHKINDREQKLHALKEVLKKFPKENHEVFKYVISHLNKVSHNNKVNLMTSENLSICFWPTLMRPDFSSMDALTATRSYQTIIELFIQQCPFFFYNRPISEPPGAAPGSPSAMAPTVPFLTSTPATSQPSPPQSPPPTPQSPMQPLLSSQLQAEHTL
Take B2: in assay [2], the binding entry was “binds”.
